Laboratory results: PubChem BioAssay AID504467 (National Center for Advancing Translational Sciences (NCATS), 2011)
Screen size: about 330,000 compounds; about 7,700 (2.3%) were called active. Inconclusive means that the source gave no clear call. Such entries were picked first, then a sample of the others. Calls come from the whole dose curve; as a rule, active = well fitted inhibition curve with a large enough effect; inconclusive = small, poorly fitted or top-dose-only effect, or effect the other way; inactive = flat fitted curve, though single readings scatter. Potencies beside an inconclusive call are fits to weak or partial responses and may not hold up.

assay: qHTS screen for small molecules that inhibit ELG1-dependent DNA repair in human embryonic kidney (HEK293T) cells expressing luciferase-tagged ELG1; details: HEK293T ELG1-luciferase reporter, luminescence, 16 h, DNA damage induced by 5-fluorouridine; series mostly up to 46.1 µM; note: nearly all actives have a fitted effect of over 55% in size
In short: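 HEK293T cells expressing luciferase-tagged ELG1 (2,000/well) received 5-Fluorouridine plus compound or DMSO for 16 hr at 37 °C. Luciferase was read by ONE-Glo luminescence after 30 min at room temperature.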
Potency is the fitted concentration of half-maximal effect.

| Compound | Potency |
| --- | --- |
| O=C(NCc1cccnc1)Nc1ccc2c(c1)OCO2 | inconclusive: 29.1 µM [activator, single point] |
| COC(=O)c1nc(N)sc1-c1ccc(Cl)cc1 | inconclusive: 16.4 µM [activator, partial curve] |
| CC(C)(C)NC(=O)COC(=O)c1cc(F)c(F)cc1Cl | inactive |
| O=C(c1ccc2c(c1)OCCO2)N1CCN(c2ccccn2)CC1 | inactive |
| S=C(NCCc1ccccn1)Nc1cc(Cl)cc(Cl)c1 | inconclusive: 13 µM [inhibitor, partial curve] |
| Cc1ccccc1-c1ccc(C=Nc2c(C)n(C)n(-c3ccccc3)c2=O)o1 | inactive |
| CCN1C(=O)C(O)(C2COC(C)(C)CC2=O)c2cc(Br)ccc21 (configuration not stated) | inconclusive: 29.1 µM [activator, partial curve, poor fit] |
| Cc1ccc(CNS(=O)(=O)c2cccc3nsnc23)cc1 | inactive |
| O=C1CCC(C(=O)N2CCSCC2)CN1CCc1ccccc1 (configuration not stated) | inconclusive: 20.6 µM [activator, single point] |
| CC(=O)Oc1ccc(/C(C)=N\N2CCN(Cc3ccc(Cl)cc3)CC2)cc1 | inconclusive: 23.1 µM [inhibitor, partial curve, poor fit] |
| O=C(COC(=O)CCS(=O)(=O)c1ccccc1)NC(=O)c1ccc(OC(F)F)cc1 | inactive |
| COc1cc(C(=O)NC(C(=O)Nc2cccc(C(C)=O)c2)C(C)C)cc(OC)c1OC (configuration not stated) | inactive |
| OCCC1CN(Cc2ccc(Oc3ncccn3)cc2)CCN1CCc1ccccc1 (configuration not stated) | inconclusive: 18.3 µM [activator, partial curve] |
| CN(Cc1ccccc1)C(=O)C1CCCN(c2ncnc3c2nc2n3CCCCC2)C1 (configuration not stated) | inconclusive: 9.2 µM [inhibitor, partial curve, poor fit] |
| COc1cc(C(=O)N2C[C@@H]3CCC[C@H]2C3)ccc1OC1CCN(C(C)=O)CC1 | inactive |
| CNC(=S)N/N=C(\C)c1ccc(C(C)(C)C)cc1 | inconclusive: 16.4 µM [activator, partial curve] |
| COc1ccc(Cl)c(NC(=O)C/C(C)=N/NC(=O)CCc2ccccc2)c1 | inactive |
| Cc1cc(=O)[nH]c(N/N=C/c2ccc(Cl)cc2Cl)n1 | inconclusive: 16.4 µM [activator, partial curve, poor fit] |
| O=C(O)c1ccc(S(=O)(=O)N(CCc2ccccc2)Cc2ccc(Cl)cc2)cc1 | inconclusive: 8.2 µM [inhibitor, partial curve, poor fit] |
| COc1ccc(CN2C(=NC(=O)COc3ccccc3)SC3CS(=O)(=O)CC32)cc1 (configuration not stated) | inconclusive: 29.1 µM [activator, single point] |
| C/C=C(/C)C(=O)OC1CC(C)(C)C[C@H]2C3=CC[C@@H]4[C@@]5(C)CCC(O[C@@H]6O[C@@H](C(=O)O)[C@@H](O)C(O[C@@H]7OC[C@H](O)[C@@H](O)[C@@H]7O[C@@H]7OC(CO)C(O)[C@@H](O)[C@@H]7O)C6O[C@@H]6OC(CO)C(O)C(O)C6O)[C@@](C)(CO)[C@@H]5CC[C@]4(C)[C@]3(C)CC(O)[C@@]12CO (some centres not stated) | inconclusive: 29.1 µM [inhibitor, single point] |
| c1ccc(CSc2ccc(-c3cccs3)nn2)nc1 | inconclusive: 18.3 µM [activator, partial curve] |
| N#Cc1ncc(-c2ccc3c(c2)OCCOCCOCCOCCOCCO3)nc1C#N | inconclusive: 20.6 µM [inhibitor, partial curve] |

| Compound | Potency |
| --- | --- |
| CCC1(C)Cc2c(sc3nnn(CC(=O)Nc4ccccc4)c(=O)c23)CO1 (configuration not stated) | inconclusive: 29.1 µM [inhibitor, single point] |
| CC1(c2ccccc2)NC(=O)N(CC#N)C1=O (configuration not stated) | inactive |
| O=C(NCCN1C(=O)S/C(=C\c2cccc(Cl)c2Cl)C1=O)C1=COCCO1 | inactive |
| COc1ccccc1Nc1nc(-c2sc(NC(=O)CC(C)C)nc2C)cs1 | inconclusive: 20.6 µM [inhibitor, single point] |
| O=C1CC(SC(=Nc2ccccc2)Nc2ccccc2)C(=O)N1c1cccc2ccccc12 (configuration not stated) | inconclusive: 29.1 µM [inhibitor, single point] |
| Cc1c([N+](=O)[O-])c([N+](=O)[O-])nn1CC(=O)NCCc1ccccc1 | inactive |
| CNC(=S)N(Cc1ccc(OC)cc1)Cc1cc2cc(C)ccc2[nH]c1=O | inactive |
| COc1cc2c(ccc3cc(OC)c(OC)c(O)c32)cc1O | inconclusive: 14.6 µM [inhibitor, partial curve, poor fit] |
| CCC(NC(=O)COc1cc2c(c3oc(=O)c(C)c(C)c13)CCC(C)(C)O2)C(=O)O (configuration not stated) | inactive |
| O=C(Nc1ccccc1N1CCOCC1)C1=NN(c2c(F)c(F)cc(F)c2F)C(=O)CC1 | inconclusive: 29.1 µM [inhibitor, single point] |
| COc1cc(OC)cc(C(=O)NCc2ccc3c(c2)cc(C)n3C)c1 | inconclusive: 16.4 µM [inhibitor, partial curve, poor fit] |
| COc1cccc(S(=O)(=O)NCc2ccc(C(=O)Nc3ccc(Cl)cc3)cc2)c1 | inconclusive: 16.4 µM [inhibitor, partial curve] |
| O=c1[nH]c(C2CCN(S(=O)(=O)c3cccc([N+](=O)[O-])c3)CC2)nc2c1nnn2Cc1ccccc1 | inconclusive: 20.6 µM [inhibitor, partial curve, poor fit] |
| O=C(CNC(=O)c1nc[nH]c1C(=O)NCc1ccccc1)OCc1ccccc1 | inactive |
| Cc1ccc(C(C)C)c(OCC(O)CN2CC(C)OC(C)C2)c1 (configuration not stated) | inactive |
| CCCCC(=O)NC(=S)Nc1cccc(NC(=O)c2ccccc2)c1 | inconclusive: 9.2 µM [inhibitor, partial curve, poor fit] |
| O=C(CC1CCCC1)Nc1nnc(C2CC2)s1 | inconclusive: 20.6 µM [activator, partial curve] |
| COc1ccc(CC(=O)Nc2nc(-c3ccc(F)c(F)c3)cs2)cc1OC | inactive |
| Oc1cccc(Nc2nc(-c3ccccc3)nc3ccccc23)c1 | inconclusive: 25.9 µM [inhibitor, single point] |
| O=C(COC(=O)COc1cccc(Br)c1)Nc1ccc(F)cc1F | inactive |
| CCCCOc1ccc(-c2nc(-c3cccnc3)no2)cc1 | inconclusive: 5.17 µM [activator, partial curve] |
| CCOC(=O)N1CCC(N2CCN(c3cc(C)ccc3C)CC2)CC1 | inconclusive: 23.1 µM [inhibitor, single point] |
| Cc1ccc(NC(=O)c2ccc3c(c2)S(=O)(=O)c2ccccc2C3=O)cc1S(=O)(=O)N1CCOCC1 | inconclusive: 13 µM [inhibitor, partial curve, poor fit] |

| Compound | Potency |
| --- | --- |
| CN1CCN(C(=S)c2cn(Cc3ccccc3F)c3ccccc23)CC1 | inactive |
| COc1cc(/C=C/c2nnc3c4ccccc4ncn23)cc(OC)c1OC | active: 6.51 µM |
| NNC(=O)c1sc2cc(C(F)(F)F)cnc2c1-c1ccccn1 | inactive |
| O=C(O)c1cc(N/N=C/c2ccc(N3CCOCC3)s2)ccc1Cl | inconclusive: 6.51 µM [activator, partial curve] |
| Cc1ccc(NC(=O)c2noc3c2CCc2ccccc2-3)cc1 | inconclusive: 14.6 µM [activator, partial curve] |
| CCCn1cnc2cc(NCc3cccc(OC)c3O)ccc21 | inconclusive: 18.4 µM [activator, partial curve] |
| Cc1c(Cl)cccc1NC(=S)N(Cc1ccco1)C(C)c1ccccn1 (configuration not stated) | inactive |
| CCOCCCn1c(C)nc2c(c1=O)c1nc3ccccc3nc1n2-c1ccc2c(c1)OCCO2 | inconclusive: 29.1 µM [inhibitor, single point] |
| COc1ccccc1CNc1ccc(C(=O)O)cc1 | inactive |
| O=C(O)c1cccc(-c2noc(-c3cccc(Cl)c3)n2)c1 | inconclusive: 0.073 µM [activator, full curve, poor fit] |
| COc1ccc(C(NC(C)=O)c2cc(Cl)c3cccnc3c2O)cc1OC (configuration not stated) | inconclusive: 6.51 µM [inhibitor, single point] |
| COc1ccc(C)cc1S(=O)(=O)N(CC(=O)NCc1ccc(Cl)cc1)Cc1ccccc1 | inconclusive: 25.9 µM [inhibitor, single point] |
| CC1(C)Cc2c(c(N3CCOCC3)nc3sc4c(NN)ncnc4c23)CS1 | inconclusive: 29.1 µM [inhibitor, single point] |
| CC(=O)Nc1ccc(C(=O)OCc2ccccc2Cl)cc1 | inconclusive: 16.4 µM [activator, partial curve] |
| O=C(O)Cn1c2c(c3ccccc31)CSc1ccc(Cl)cc1-2 | inconclusive: 23.1 µM [inhibitor, partial curve, poor fit] |
| CNC(=S)N1CCc2cc(OC)c(OC)cc2C1COc1ccc(OC)cc1 (configuration not stated) | inactive |
| Cc1ccc(NC(=S)/N=C(\N)Nc2nc(C)c3cc(C)c(C)cc3n2)cc1C | inconclusive: 18.3 µM [inhibitor, partial curve] |
| COc1ccccc1/C=C/C(=O)NC(=S)NC(C)C | inconclusive: 23.1 µM [inhibitor, single point] |
| COc1ccc(C(=O)CSc2nnc(-c3ccccn3)n2Cc2ccco2)cc1 | inconclusive: 18.4 µM [inhibitor, partial curve] |
| CC(=O)c1ccc(-c2ccc([C@H]3[C@H]4C=CC[C@@H](C)[C@@H]4C(=O)N3Cc3ccccc3)c(F)c2)cc1 | inconclusive: 18.3 µM [inhibitor, single point] |
| O=C(CSc1nnnn1Cc1ccccc1)NC1CCCCC1 | inactive |

Structural class: those above with a cyano group

| Compound | Potency |
| --- | --- |
| N#Cc1ncc(-c2ccc3c(c2)OCCOCCOCCOCCOCCO3)nc1C#N | inconclusive: 20.6 µM [inhibitor, partial curve] |
| CC1(c2ccccc2)NC(=O)N(CC#N)C1=O (configuration not stated) | inactive |
